The values below come from patent US20050287643A1 (YALE UNIVERSITY, published 2005).

By UniProt entry, the sequences of proteins in these tests, tags left out. Where a name states a change or a piece, a line headed by the entry shows the natural chain unless it says otherwise. Residues count along the entry.
UniProt Q03173, residues 1-112: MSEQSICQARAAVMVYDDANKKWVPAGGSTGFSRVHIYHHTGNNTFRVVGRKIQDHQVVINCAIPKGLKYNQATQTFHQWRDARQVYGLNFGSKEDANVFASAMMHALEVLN
UniProt P33379: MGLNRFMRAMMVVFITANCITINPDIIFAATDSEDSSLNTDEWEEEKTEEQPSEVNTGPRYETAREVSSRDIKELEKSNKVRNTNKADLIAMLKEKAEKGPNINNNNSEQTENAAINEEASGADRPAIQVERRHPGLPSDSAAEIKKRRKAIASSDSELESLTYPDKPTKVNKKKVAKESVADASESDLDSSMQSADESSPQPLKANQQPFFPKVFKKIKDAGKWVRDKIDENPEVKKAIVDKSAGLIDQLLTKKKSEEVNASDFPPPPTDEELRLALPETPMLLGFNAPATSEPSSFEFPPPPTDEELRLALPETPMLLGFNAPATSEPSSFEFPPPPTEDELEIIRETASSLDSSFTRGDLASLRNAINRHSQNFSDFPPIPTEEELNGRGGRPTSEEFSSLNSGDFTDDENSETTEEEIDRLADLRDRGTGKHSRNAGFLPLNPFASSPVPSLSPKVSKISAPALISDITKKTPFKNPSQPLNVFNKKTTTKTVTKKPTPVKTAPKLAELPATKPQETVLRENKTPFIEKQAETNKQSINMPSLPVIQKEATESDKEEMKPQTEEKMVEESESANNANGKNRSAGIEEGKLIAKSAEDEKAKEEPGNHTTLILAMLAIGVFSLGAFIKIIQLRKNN

Results are given in words; binding and its absence hold for the method and conditions named. Some results given as binding are weak or reduced against the parent protein; the word gives no strength.

This assay deals with Mena1-112 EVH1 domain (UniProt Q03173). Kind of assay: tryptophan fluorescence perturbation.

For the substance “ActA11 (from UniProt P33379 298-308) (peptide)”, the binding result was “binds”.
